# According to PubChem BioAssay (Tox21):
# Chains of the proteins cited; added tags and fusions are not shown. Lines headed by an entry give the natural chain unless they say otherwise; changes in a name come on top.
# UniProt P11712, whole entry, looked up: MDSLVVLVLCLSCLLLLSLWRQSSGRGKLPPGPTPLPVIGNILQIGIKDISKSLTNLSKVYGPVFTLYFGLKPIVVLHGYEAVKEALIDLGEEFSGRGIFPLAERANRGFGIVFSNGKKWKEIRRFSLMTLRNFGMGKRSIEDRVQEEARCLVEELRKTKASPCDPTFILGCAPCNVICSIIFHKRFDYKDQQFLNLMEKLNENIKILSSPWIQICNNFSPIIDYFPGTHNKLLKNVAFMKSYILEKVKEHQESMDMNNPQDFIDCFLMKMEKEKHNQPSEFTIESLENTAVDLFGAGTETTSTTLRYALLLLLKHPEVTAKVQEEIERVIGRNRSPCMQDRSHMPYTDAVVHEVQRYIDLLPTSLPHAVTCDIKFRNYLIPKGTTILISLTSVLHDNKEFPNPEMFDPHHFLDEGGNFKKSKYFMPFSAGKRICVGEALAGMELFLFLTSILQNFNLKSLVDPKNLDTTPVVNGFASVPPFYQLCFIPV
# UniProt P05177, whole entry, looked up: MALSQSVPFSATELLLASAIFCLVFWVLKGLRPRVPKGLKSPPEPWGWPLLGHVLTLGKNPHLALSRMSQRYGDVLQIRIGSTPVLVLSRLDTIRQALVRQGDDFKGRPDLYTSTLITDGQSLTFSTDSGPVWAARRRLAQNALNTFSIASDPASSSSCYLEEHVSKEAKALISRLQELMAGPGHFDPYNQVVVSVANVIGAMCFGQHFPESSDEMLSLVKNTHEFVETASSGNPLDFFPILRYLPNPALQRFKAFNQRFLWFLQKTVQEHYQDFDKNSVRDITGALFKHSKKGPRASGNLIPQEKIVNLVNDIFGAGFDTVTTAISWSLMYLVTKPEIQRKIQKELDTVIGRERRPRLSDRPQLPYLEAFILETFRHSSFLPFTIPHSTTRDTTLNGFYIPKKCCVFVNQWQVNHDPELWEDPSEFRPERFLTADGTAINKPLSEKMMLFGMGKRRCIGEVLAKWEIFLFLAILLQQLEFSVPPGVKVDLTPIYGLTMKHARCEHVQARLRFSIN
# UniProt Q12809: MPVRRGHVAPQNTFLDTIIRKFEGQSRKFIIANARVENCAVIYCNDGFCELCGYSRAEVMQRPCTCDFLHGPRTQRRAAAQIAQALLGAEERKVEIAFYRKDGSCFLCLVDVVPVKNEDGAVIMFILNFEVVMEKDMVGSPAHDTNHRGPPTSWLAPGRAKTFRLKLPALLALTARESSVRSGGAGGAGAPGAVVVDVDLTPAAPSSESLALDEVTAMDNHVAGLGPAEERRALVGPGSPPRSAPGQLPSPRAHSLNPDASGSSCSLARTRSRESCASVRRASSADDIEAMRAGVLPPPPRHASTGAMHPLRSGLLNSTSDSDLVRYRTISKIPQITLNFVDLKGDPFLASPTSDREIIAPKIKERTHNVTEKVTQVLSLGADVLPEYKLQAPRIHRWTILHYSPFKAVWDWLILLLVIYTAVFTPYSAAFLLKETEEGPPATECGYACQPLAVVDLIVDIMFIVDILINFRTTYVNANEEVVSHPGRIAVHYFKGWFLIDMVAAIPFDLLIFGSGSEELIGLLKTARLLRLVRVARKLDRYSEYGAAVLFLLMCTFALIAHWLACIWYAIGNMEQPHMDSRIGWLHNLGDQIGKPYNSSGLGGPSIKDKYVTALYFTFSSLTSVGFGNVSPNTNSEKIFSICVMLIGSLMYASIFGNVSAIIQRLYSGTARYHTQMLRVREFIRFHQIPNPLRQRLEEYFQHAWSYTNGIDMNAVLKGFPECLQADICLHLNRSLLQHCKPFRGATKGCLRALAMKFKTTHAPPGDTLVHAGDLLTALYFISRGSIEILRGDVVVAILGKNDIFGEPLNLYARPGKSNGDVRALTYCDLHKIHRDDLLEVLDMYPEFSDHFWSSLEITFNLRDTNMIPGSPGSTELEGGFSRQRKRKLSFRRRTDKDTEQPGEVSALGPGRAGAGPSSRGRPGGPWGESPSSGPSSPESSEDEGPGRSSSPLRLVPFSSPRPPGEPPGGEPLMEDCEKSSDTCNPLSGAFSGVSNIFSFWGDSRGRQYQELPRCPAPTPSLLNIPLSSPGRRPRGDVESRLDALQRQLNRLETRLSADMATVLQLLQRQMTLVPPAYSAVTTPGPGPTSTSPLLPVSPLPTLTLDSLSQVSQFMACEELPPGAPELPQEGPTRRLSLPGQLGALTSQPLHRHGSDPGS
# UniProt P08684, whole entry, looked up: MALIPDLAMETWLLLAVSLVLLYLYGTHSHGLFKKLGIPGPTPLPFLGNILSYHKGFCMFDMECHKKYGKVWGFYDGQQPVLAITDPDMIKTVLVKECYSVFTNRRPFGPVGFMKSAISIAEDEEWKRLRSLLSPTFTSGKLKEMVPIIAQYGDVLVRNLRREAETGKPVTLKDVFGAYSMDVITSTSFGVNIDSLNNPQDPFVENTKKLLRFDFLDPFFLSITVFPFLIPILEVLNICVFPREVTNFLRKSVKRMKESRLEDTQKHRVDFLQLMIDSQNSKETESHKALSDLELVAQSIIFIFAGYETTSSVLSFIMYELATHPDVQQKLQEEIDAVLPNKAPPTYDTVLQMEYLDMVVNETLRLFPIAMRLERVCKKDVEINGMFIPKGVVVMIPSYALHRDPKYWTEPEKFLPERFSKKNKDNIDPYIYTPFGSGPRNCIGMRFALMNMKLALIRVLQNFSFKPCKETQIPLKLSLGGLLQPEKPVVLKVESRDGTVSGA
# “And” between values parts separate entries of the source, which are not always exact repeats. Equal values may be shown once. This list was built around the results that the source calls inconclusive (neither active nor inactive); the mix of calls is not that of the screen. Where the call is inconclusive, the potency comes from a doubtful curve fit. Where a structure was tested more than once in an assay, its records may differ in their call. The source made the active and inactive calls. Calls follow the shape of the dose curve; as a rule, active = well fitted curve in the direction sought with a large enough effect in the repeat runs; inconclusive = weak or mixed curves; inactive = no such curve, though single readings can be large; an effect the other way counts as inactive or inconclusive.
# Legend:
# [1] = target: Cytochrome P450 2C9 (Homo sapiens) (UniProt P11712); test: Cytochrome P450 Family 2 Subfamily C Member 9 (CYP2C9) small molecule antagonists: luciferase reporter qHTS assay (AID 1671198)
# Summary of the method: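 P450-Glo proluciferin substrate with CYP2C9 enzyme; 10 min RT preincubation, then NADPH regeneration 1 h at 37C; luciferin detection reagent 20 min RT, luminescence in relative luminescence units.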
# [2] = target: Cytochrome P450 1A2 (Homo sapiens) (UniProt P05177); test: Cytochrome P450 Family 1 Subfamily A Member 2 (CYP1A2) small molecule antagonists: luciferase reporter qHTS assay (AID 1671199)
# Summary of the method: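 CYP1A2 turnover of a luminogenic substrate was quantified after 1 h with NADPH regeneration at room temperature. Furafylline served as positive control.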
# [3] = target: Voltage-gated inwardly rectifying potassium channel KCNH2 (Homo sapiens) (UniProt Q12809); test: Human Ether-a-go-go-Related Gene (hERG) channel small molecule antagonists: fluorescence cell-based qHTS assay (AID 1671200)
# Summary of the method: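 Read-out: thallium influx as a surrogate for potassium, tracked as fluorescence (480 nm ex/540 nm em) every second for 2 min after Stimulus Buffer addition in dye-loaded hERG-U2OS cells.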
# [4] = target: Cytochrome P450 3A4 (Homo sapiens) (UniProt P08684); test: Cytochrome P450 Family 3 Subfamily A Member 4 (CYP3A4) small molecule antagonists: luciferase reporter qHTS assay (AID 1671201)
# Summary of the method: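 Luminescent readout (RLU) proportional to CYP3A4 activity, from luciferin generated off a proluciferin substrate. Enzyme–substrate mix plus compound 10 min at room temp, NADPH regeneration 1 h, detection reagent 20 min.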
# Also: nearly all actives have a fitted effect of over 50% in size.
# Potency is read from the fitted curve at half-maximal effect.
smiles,measurement,setting,value
CC(=O)OCCOC(C)=O,Potency,[1],inactive
same,Potency,[2],"inconclusive: 70.9 µM [inhibitor, partial curve, poor fit] and inconclusive: 70.8 µM [inhibitor, partial curve, poor fit]"
Oc1c(Br)cc(Br)c2cccnc12,Potency,[1],"inconclusive: 38.9 µM [inhibitor, partial curve]"
same,Potency,[2],"inconclusive: 30.9 µM [inhibitor, partial curve]"
O=C(NO)c1ccccc1,Potency,[1],"inconclusive: 75.8 µM [inhibitor, partial curve]"
same,Potency,[2],inconclusive: 46.5 µM [inhibitor]
CN(C)CCC=C1c2ccccc2CCc2ccccc21,Potency,[1],inactive
same,Potency,[2],"inconclusive: 31.7 µM [inhibitor] and inconclusive: 31.7 µM [inhibitor, partial curve]"
CCCCCCCCCCCCCCCCCC[N+](C)(C)C,Potency,[1],active: 63.5 µM
same,Potency,[2],inconclusive: 79.9 µM [inhibitor]
C=C(C)C(=O)OCCC[Si](OC)(OC)OC,Potency,[1],"active: 15.7 µM and inconclusive: 56.4 µM [inhibitor, partial curve]"
same,Potency,[2],"inconclusive: 35.6 µM [inhibitor, partial curve]"
N#CSCSc1nc2ccccc2s1,Potency,[1],active: 31.7 µM
same,Potency,[2],active: 5.64 µM
CCOC(=O)[C@H](CCc1ccccc1)N[C@@H](C)C(=O)N1Cc2ccccc2C[C@H]1C(=O)O,Potency,[1],active: 8.02 µM and active: 12.3 µM
Nc1ccc(N)c2ccccc12,Potency,[1],active: 3.99 µM
CCCCC/C(C=O)=C\c1ccccc1,Potency,[1],"inconclusive: 71.1 µM [inhibitor, partial curve] and inconclusive: 11 µM [inhibitor, full curve, poor fit]"
CC1CC(OC(=O)c2ccccc2O)CC(C)(C)C1 (configuration not stated),Potency,[1],"inconclusive: 17.4 µM [inhibitor, partial curve]"
same,Potency,[2],inactive and active: 27.5 µM
O=C(O)c1ccccc1C(c1ccc(O)cc1)c1ccc(O)cc1,Potency,[1],"inconclusive: 71.1 µM [inhibitor, partial curve] and inconclusive: 63.3 µM [inhibitor]"
O=C(O)CS,Potency,[1],inconclusive: 64.9 µM [inhibitor] and inactive
same,Potency,[2],inactive
CCCCCCCCCCCCCCCCC(C(=O)O)C(O)(CC(=O)O)C(=O)O (configuration not stated),Potency,[1],inactive
same,Potency,[2],inactive
SC1CCCCC1,Potency,[1],inactive
CC(O)(c1ccc(Cl)cc1)c1ccc(Cl)cc1,Potency,[1],active: 7.96 µM
CCC(Cc1c(I)cc(I)c(N)c1I)C(=O)O (configuration not stated),Potency,[1],active: 30.7 µM and active: 30.9 µM
same,Potency,[2],"inconclusive: 61.3 µM [inhibitor, partial curve] and inconclusive: 27.5 µM [inhibitor, partial curve]"
CC(O)CO (configuration not stated),Potency,[1],"inconclusive: 89.4 µM [inhibitor, partial curve, poor fit] and inconclusive: 1.97 µM [inhibitor, full curve]"
same,Potency,[2],"inactive and inconclusive: 44.8 µM [inhibitor, partial curve]"
OCCOCCOCCOCCO,Potency,[1],"inconclusive: 45.7 µM [inhibitor, partial curve, poor fit]"
same,Potency,[2],"inconclusive: 45.7 µM [inhibitor, partial curve]"
CCCNC(=O)NS(=O)(=O)c1ccc(Cl)cc1,Potency,[1],"inconclusive: 30.9 µM [inhibitor, partial curve]"
same,Potency,[2],"inconclusive: 39.7 µM [inhibitor, partial curve]"
CCCCC(CC)COS(=O)(=O)O (configuration not stated),Potency,[1],"inconclusive: 63.3 µM [inhibitor, partial curve, poor fit]"
CC(C)(C)c1ccc(O)c(O)c1,Potency,[1],"inconclusive: 73.4 µM [inhibitor, partial curve]"
same,Potency,[2],"inconclusive: 73.4 µM [inhibitor, partial curve] and active: 41.1 µM"
c1ccc2c(c1)-c1cccc3c1c-2cc1ccccc13,Potency,[1],"inconclusive: 22 µM [inhibitor, partial curve, poor fit] and inactive"
O=C(O[C@@H]1Cc2c(O)cc(O)cc2O[C@@H]1c1cc(O)c(O)c(O)c1)c1cc(O)c(O)c(O)c1,Potency,[1],active: 40 µM and active: 27.2 µM
same,Potency,[2],"inconclusive: 40 µM [inhibitor, partial curve]"
CCc1cccc(C)c1N,Potency,[1],"inconclusive: 63.3 µM [inhibitor, partial curve]"
same,Potency,[2],"inconclusive: 61.3 µM [inhibitor, partial curve, poor fit] and active: 39.9 µM"
C[n+]1cc2c3c(ccc2c2ccc4cc5c(cc4c21)OCO5)OCO3,Potency,[1],"inconclusive: 7.56 µM [inhibitor, partial curve]"
Oc1ccc(O)cc1,Potency,[1],"inconclusive: 22.3 µM [inhibitor] and inconclusive: 17.8 µM [inhibitor, partial curve] and inconclusive: 13.8 µM [inhibitor, partial curve]"
same,Potency,[2],"inconclusive: 39.7 µM [inhibitor, partial curve] and inconclusive: 38.9 µM [inhibitor, partial curve, poor fit]"
CC(C)c1ccc(S(=O)(=O)O)cc1,Potency,[1],"inconclusive: 39.9 µM [inhibitor, partial curve]"
same,Potency,[2],inactive
Cc1cc(O)c(C(C)C)cc1Cl,Potency,[1],active: 14.2 µM and active: 15.5 µM
same,Potency,[2],active: 20 µM and active: 15.5 µM
CSCCC=O,Potency,[1],"inconclusive: 67.6 µM [inhibitor, partial curve]"
CC1=CC(=O)c2ccccc2C1=O,Potency,[1],active: 22.4 µM and active: 13.8 µM
same,Potency,[2],active: 1.78 µM and active: 2.75 µM
COc1ccc(OC)cc1,Potency,[1],inconclusive: 64.4 µM [inhibitor]
same,Potency,[2],"inconclusive: 72.3 µM [inhibitor] and inconclusive: 39.9 µM [inhibitor, partial curve]"
CC(C)CC(=O)CC(C)C,Potency,[1],"inconclusive: 71.7 µM [inhibitor, partial curve, poor fit]"
same,Potency,[2],inactive
CC(=O)OC/C=C(C)/C=C/C=C(C)/C=C/C1=C(C)CCCC1(C)C,Potency,[1],active: 31 µM and active: 31.7 µM and active: 19.5 µM
same,Potency,[2],"inconclusive: 34.7 µM [inhibitor, partial curve]"
CCCCCCCCCCCCCOP(=O)(O)O,Potency,[1],"inconclusive: 28.3 µM [inhibitor, partial curve]"
same,Potency,[2],"inconclusive: 71 µM [inhibitor, partial curve]"
C=CC(=O)OCC(O)COc1ccccc1 (configuration not stated),Potency,[1],"inconclusive: 44.8 µM [inhibitor, partial curve]"
same,Potency,[2],active: 35.6 µM
OC1(c2ccc(Cl)c(C(F)(F)F)c2)CCN(CCCC(c2ccc(F)cc2)c2ccc(F)cc2)CC1,Potency,[1],active: 8.71 µM
same,Potency,[2],"inconclusive: 27.5 µM [inhibitor, partial curve]"
ClC1=C(Cl)C(Cl)(Cl)C(Cl)=C1Cl,Potency,[1],"inconclusive: 80.2 µM [inhibitor, partial curve, poor fit] and inconclusive: 63.3 µM [inhibitor, partial curve]"
same,Potency,[2],"inconclusive: 71.4 µM [inhibitor, partial curve] and inactive"
O=C1CCCCCN1,Potency,[1],inconclusive: 71.2 µM [inhibitor] and inactive
same,Potency,[2],"inconclusive: 71.2 µM [inhibitor, partial curve, poor fit] and inactive"
CCCCCN=C(N)N/N=C/c1c[nH]c2ccc(OC)cc12,Potency,[1],active: 38.9 µM
same,Potency,[3],active: 10.7 µM
O=Nc1ccc(NO)cc1,Potency,[1],inactive
same,Potency,[3],inactive
same,Potency,[4],"inconclusive: 41.5 µM [inhibitor, partial curve, poor fit]"
CCCCCCCCCCCC(=O)NCCCN(C)C,Potency,[1],"inconclusive: 63.3 µM [inhibitor, partial curve]"
same,Potency,[2],active: 35.6 µM
same,Potency,[4],"inconclusive: 39.9 µM [inhibitor, partial curve]"
Cc1cc(F)ccc1-c1cc(N2CC[C@@H](O)[C@H]2CO)ncc1N(C)C(=O)C(C)(C)c1cc(C(F)(F)F)cc(C(F)(F)F)c1,Potency,[1],active: 22.1 µM
same,Potency,[2],inconclusive: 27.8 µM [inhibitor]
Nc1ccc(O)c(C(=O)O)c1,Potency,[1],"inconclusive: 21.9 µM [inhibitor, partial curve, poor fit]"
same,Potency,[2],"inconclusive: 70.4 µM [inhibitor, partial curve, poor fit] and inconclusive: 63.3 µM [inhibitor, partial curve]"
CC(=O)Nc1ccc(C(=O)CCl)cc1,Potency,[1],"inconclusive: 80 µM [inhibitor, single point]"
same,Potency,[2],"inconclusive: 71.3 µM [inhibitor, partial curve, poor fit]"
same,Potency,[3],"inconclusive: 15.5 µM [inhibitor, full curve, poor fit]"
same,Potency,[4],"inconclusive: 79.6 µM [inhibitor, partial curve, poor fit]"
O=C1CCC/C=C\CCCCCCCCCC1,Potency,[1],"inconclusive: 56.4 µM [inhibitor, partial curve]"
same,Potency,[2],"inconclusive: 35.6 µM [inhibitor, partial curve]"
same,Potency,[3],"inconclusive: 21.9 µM [inhibitor, partial curve]"

# Not a retest: entries from further up.
smiles,measurement,setting,value
CC(O)CO (configuration not stated),Potency,[2],"inactive and inconclusive: 44.8 µM [inhibitor, partial curve]"
OCCOCCOCCOCCO,Potency,[1],"inconclusive: 45.7 µM [inhibitor, partial curve, poor fit]"
same,Potency,[2],"inconclusive: 45.7 µM [inhibitor, partial curve]"
CCCNC(=O)NS(=O)(=O)c1ccc(Cl)cc1,Potency,[1],"inconclusive: 30.9 µM [inhibitor, partial curve]"
same,Potency,[2],"inconclusive: 39.7 µM [inhibitor, partial curve]"
